The other results are listed elsewhere or left out.
What was measured:
Assay in all cases: log2 fold change, soluble protein after heating vs DMSO (PISA); higher = thermal stabilisation; K562 cells, 10 uM, 30 min; active = over 0.2 and 3.5 SD of the protein, either way, in both replicates (recomputed)
[1] = compound: CS(=O)(=O)c1ccc(-c2cnc(N)c(C(=O)Nc3ccccc3)n2)cc1
Procedure, shortened: (§1)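 Soluble protein was quantified by TMTpro 16plex LC-MS/MS after channel sums were equalised. It was obtained as the supernatant after 21,000xg for 90 min from pooled aliquots of K562 cells (2×10^6 cells/mL, 10 μM compound, 30 min) heated for 3 min across 48°C-58°C and extracted in PBS with 0.5% NP-40 at 4°C. Thermal stability values are relative to control samples and come from duplicates. They are given as log2 fold changes.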

The chains behind the UniProt entries cited, without tags or fusion partners. Where a name states a change or a piece, a line headed by the entry shows the natural chain unless it says otherwise.
UniProt Q12800: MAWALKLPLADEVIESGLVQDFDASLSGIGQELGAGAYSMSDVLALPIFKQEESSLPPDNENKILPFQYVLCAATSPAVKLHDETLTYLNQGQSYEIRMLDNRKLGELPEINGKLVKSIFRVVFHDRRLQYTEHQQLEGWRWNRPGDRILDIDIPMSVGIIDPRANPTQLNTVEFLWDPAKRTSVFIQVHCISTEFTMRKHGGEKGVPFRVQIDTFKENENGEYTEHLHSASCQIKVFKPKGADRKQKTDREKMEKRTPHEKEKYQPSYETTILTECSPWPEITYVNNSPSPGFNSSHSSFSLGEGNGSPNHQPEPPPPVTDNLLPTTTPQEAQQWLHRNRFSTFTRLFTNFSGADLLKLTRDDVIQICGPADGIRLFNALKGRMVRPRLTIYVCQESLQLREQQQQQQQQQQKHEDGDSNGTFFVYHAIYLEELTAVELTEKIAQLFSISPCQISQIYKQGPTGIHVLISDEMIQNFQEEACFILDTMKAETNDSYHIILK
UniProt Q12788: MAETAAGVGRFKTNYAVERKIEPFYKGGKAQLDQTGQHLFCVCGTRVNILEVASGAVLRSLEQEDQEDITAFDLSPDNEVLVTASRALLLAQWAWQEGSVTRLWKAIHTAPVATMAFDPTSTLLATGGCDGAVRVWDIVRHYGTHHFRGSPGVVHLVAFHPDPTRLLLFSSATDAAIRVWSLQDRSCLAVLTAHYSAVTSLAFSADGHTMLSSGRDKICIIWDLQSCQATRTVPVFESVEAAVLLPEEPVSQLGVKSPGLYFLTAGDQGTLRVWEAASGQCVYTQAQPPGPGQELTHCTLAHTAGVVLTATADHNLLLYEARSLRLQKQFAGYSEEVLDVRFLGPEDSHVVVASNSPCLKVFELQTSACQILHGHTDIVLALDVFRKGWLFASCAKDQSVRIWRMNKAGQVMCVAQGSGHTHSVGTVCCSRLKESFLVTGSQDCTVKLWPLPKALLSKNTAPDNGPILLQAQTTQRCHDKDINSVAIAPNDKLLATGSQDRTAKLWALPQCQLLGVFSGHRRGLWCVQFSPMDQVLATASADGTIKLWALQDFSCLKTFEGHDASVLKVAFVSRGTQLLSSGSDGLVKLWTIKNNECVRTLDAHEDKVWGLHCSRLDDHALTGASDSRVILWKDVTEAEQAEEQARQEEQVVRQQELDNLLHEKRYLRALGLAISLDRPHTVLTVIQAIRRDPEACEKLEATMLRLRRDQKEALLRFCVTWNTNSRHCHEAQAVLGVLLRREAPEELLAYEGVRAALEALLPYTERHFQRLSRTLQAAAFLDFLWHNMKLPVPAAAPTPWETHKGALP
UniProt Q96BS2: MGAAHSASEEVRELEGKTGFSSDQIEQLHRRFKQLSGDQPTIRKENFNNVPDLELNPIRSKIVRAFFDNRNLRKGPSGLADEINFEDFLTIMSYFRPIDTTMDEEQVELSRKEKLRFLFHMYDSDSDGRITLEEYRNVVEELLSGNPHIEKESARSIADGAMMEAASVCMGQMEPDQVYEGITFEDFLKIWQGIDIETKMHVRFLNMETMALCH
UniProt Q8IWB9: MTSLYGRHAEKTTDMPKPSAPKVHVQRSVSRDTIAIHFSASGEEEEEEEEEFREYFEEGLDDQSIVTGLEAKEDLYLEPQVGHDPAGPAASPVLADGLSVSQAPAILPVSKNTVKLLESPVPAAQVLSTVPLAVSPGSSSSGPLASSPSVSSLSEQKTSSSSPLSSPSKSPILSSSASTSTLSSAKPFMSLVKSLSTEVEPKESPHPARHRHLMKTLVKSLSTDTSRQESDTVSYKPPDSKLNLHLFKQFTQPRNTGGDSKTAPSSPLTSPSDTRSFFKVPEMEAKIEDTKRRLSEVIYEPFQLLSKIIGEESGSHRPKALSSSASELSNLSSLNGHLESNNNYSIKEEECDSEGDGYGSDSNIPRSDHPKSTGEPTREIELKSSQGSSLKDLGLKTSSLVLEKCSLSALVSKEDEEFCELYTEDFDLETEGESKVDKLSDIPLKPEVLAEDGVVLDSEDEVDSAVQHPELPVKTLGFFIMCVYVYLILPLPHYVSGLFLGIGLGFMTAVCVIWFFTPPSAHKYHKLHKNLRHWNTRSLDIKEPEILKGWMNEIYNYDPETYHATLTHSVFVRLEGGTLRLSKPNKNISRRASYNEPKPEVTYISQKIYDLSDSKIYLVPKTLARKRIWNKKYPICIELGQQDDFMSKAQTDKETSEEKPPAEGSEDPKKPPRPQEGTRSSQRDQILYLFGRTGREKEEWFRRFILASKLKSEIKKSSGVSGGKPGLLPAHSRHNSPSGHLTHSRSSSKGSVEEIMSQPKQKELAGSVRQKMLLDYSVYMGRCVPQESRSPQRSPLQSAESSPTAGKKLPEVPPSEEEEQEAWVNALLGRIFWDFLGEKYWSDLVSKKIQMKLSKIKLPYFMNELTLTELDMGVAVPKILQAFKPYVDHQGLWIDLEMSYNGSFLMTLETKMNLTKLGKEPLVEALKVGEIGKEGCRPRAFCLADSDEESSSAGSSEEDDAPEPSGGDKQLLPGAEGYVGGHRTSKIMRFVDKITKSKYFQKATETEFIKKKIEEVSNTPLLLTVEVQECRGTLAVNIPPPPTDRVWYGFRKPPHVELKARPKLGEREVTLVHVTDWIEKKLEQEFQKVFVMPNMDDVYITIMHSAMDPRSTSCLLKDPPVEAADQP
UniProt Q01085: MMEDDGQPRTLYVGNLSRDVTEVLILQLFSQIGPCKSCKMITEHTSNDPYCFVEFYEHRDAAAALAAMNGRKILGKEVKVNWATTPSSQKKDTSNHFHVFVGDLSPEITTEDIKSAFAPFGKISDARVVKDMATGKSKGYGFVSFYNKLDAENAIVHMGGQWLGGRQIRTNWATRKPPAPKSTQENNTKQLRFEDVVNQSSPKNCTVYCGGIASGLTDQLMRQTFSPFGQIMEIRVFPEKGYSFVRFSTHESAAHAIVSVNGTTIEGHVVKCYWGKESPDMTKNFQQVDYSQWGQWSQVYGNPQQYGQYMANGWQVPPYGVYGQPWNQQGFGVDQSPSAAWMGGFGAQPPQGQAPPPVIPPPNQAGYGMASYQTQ
UniProt Q04726: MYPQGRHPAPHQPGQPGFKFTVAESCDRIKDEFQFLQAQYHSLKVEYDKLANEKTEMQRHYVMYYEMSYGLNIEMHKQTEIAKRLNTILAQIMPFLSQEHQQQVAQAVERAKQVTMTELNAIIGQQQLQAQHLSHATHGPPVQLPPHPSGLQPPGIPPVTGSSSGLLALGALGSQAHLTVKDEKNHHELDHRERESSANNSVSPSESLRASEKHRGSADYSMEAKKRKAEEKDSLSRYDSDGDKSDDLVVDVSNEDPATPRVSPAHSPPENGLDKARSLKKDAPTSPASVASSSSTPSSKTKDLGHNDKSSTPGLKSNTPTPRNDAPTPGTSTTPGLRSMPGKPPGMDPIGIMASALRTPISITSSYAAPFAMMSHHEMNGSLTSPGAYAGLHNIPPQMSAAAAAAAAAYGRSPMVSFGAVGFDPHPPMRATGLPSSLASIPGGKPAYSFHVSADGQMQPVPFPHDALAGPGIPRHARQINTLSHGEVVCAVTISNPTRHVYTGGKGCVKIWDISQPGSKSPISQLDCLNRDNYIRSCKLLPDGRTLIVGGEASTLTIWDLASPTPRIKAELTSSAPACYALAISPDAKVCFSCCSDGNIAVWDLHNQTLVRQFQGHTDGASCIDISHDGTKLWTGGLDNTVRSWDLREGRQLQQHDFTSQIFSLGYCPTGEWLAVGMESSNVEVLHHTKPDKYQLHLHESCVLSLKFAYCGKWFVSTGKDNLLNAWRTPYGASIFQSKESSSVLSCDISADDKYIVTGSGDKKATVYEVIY
UniProt Q96RS0: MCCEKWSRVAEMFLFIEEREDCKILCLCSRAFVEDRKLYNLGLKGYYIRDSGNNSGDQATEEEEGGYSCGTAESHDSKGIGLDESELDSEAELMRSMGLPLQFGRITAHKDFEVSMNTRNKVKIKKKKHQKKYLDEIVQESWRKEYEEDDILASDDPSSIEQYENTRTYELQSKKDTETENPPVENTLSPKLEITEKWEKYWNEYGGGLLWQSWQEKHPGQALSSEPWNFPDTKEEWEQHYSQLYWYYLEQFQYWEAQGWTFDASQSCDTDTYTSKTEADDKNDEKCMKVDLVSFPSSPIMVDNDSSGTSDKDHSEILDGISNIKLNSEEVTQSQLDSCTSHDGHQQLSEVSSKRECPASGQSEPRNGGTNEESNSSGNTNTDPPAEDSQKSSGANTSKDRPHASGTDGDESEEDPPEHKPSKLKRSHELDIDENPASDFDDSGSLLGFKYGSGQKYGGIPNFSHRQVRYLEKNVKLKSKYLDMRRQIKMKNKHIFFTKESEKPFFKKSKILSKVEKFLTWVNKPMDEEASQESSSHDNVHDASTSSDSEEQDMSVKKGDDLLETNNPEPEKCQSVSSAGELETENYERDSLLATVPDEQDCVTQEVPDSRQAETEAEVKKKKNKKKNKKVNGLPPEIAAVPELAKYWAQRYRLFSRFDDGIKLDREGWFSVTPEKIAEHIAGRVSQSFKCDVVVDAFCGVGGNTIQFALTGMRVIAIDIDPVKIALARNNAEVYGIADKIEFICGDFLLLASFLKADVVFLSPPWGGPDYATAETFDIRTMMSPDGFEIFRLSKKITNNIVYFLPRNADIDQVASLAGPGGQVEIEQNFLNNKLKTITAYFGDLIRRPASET
UniProt P15923: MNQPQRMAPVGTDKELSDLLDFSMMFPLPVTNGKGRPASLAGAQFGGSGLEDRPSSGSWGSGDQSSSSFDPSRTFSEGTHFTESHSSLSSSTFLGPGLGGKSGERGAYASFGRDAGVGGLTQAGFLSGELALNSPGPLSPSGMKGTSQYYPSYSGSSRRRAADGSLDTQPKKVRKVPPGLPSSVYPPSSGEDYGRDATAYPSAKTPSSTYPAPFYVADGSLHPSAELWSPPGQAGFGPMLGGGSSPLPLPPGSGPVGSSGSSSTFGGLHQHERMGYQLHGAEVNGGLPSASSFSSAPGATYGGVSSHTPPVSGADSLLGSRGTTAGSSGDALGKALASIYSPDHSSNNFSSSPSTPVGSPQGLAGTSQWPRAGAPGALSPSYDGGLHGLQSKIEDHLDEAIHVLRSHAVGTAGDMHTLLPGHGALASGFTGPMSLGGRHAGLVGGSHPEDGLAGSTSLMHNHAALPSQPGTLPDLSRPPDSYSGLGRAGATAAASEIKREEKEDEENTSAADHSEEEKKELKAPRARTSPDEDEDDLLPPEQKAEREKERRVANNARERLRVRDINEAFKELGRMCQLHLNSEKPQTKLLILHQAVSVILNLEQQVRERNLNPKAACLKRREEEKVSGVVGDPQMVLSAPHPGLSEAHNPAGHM
UniProt Q9NUY8: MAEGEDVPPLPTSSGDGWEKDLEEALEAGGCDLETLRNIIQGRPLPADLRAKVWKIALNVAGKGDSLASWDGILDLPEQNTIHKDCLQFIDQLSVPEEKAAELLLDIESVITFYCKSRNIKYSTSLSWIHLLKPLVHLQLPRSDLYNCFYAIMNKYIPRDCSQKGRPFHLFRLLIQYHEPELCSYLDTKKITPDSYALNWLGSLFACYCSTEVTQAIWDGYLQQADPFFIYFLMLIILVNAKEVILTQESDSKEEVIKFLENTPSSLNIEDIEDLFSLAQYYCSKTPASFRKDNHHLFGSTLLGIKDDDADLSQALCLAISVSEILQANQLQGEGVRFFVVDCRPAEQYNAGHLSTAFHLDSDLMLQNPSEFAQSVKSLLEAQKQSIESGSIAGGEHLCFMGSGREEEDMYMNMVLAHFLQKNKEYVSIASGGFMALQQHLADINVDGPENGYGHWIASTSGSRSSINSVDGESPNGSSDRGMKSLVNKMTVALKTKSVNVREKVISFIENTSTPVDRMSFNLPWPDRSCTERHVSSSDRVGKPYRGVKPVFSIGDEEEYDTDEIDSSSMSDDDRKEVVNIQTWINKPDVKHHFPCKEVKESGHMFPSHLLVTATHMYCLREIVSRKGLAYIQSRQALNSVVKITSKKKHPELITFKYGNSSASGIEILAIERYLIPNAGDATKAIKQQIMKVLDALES
UniProt Q14186: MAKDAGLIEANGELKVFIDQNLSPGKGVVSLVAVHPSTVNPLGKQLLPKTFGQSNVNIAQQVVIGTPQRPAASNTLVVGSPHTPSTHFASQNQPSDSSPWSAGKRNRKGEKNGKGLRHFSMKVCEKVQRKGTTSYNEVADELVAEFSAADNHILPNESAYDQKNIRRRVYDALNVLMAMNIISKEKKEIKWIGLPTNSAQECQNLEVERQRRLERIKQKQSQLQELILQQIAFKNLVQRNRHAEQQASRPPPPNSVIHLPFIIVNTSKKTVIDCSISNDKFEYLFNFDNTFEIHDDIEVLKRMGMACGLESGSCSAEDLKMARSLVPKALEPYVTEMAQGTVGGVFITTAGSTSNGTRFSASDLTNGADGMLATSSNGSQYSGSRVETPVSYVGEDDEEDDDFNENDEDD

crizotinib = compound: C[C@@H](Oc1cc(-c2cnn(C3CCNCC3)c2)cnc1N)c1c(Cl)ccc(F)c1Cl [crizotinib]
Procedure, shortened: as §1

[2] = compound: C[C@@H]1COCCN1C2=NC(=NC(=C2)C3(CC3)S(=O)(=O)C)C4=C5C=CNC5=CC=C4
Procedure, shortened: as §1

[3] = compound: C[C@H](C1=CC=C(C=C1)C(=O)NC2=C3C=CNC3=NC=C2)N
Procedure, shortened: as §1

duvelisib = compound: C[C@H](Nc1ncnc2nc[nH]c12)c1cc2cccc(Cl)c2c(=O)n1-c1ccccc1 [duvelisib]
Procedure, shortened: as §1

gandotinib = compound: Cc1cc(Nc2cc(CN3CCOCC3)c3nc(C)c(Cc4ccc(Cl)cc4F)n3n2)n[nH]1 [gandotinib]
Procedure, shortened: as §1

[4] = compound: Cc1cc(SCc2sc(-c3ccc(C(F)(F)F)cc3)nc2C)ccc1OCC(=O)O
Procedure, shortened: as §1

doramapimod = compound: Cc1ccc(-n2nc(C(C)(C)C)cc2NC(=O)Nc2ccc(OCCN3CCOCC3)c3ccccc23)cc1 [doramapimod]
Procedure, shortened: as §1

ispinesib = compound: Cc1ccc(C(=O)N(CCCN)[C@@H](c2nc3cc(Cl)ccc3c(=O)n2Cc2ccccc2)C(C)C)cc1 [ispinesib]
Procedure, shortened: as §1

bafetinib = compound: Cc1ccc(NC(=O)c2ccc(CN3CC[C@H](N(C)C)C3)c(C(F)(F)F)c2)cc1Nc1nccc(-c2cncnc2)n1 [bafetinib]
Procedure, shortened: as §1

[5] = compound: Cc1cccc(CC(=O)N2CCc3c2ccc(-c2cn(C)c4ncnc(N)c24)c3F)n1
Procedure, shortened: as §1

nilotinib = compound: Cc1cn(-c2cc(NC(=O)c3ccc(C)c(Nc4nccc(-c5cccnc5)n4)c3)cc(C(F)(F)F)c2)cn1 [nilotinib]
Procedure, shortened: as §1

[6] = compound: Cc1nc(Nc2n[nH]c3c2CN(C(=O)N[C@H](CN(C)C)c2ccccc2)C3(C)C)c2sccc2n1
Procedure, shortened: as §1

dasatinib = compound: Cc1nc(Nc2ncc(C(=O)Nc3c(C)cccc3Cl)s2)cc(N2CCN(CCO)CC2)n1 [dasatinib]
Procedure, shortened: as §1

[7] = compound: Cc1ncc(-c2ccnc(Nc3ccc(S(C)(=O)=O)cc3)n2)n1C(C)C
Procedure, shortened: as §1

[8] = compound: Cn1cc(-c2ccc3c(c2)CCN3C(=O)Cc2cccc(C(F)(F)F)c2)c2c(N)ncnc21
Procedure, shortened: as §1

[9] = compound: Cn1cc(-c2ccc3nnc(C(F)(F)c4ccc5ncccc5c4)n3n2)cn1
Procedure, shortened: as §1

tozasertib = compound: Cc1cc(Nc2cc(N3CCN(C)CC3)nc(Sc3ccc(NC(=O)C4CC4)cc3)n2)n[nH]1 [tozasertib]
Procedure, shortened: as §1

tipifarnib = compound: Cn1cncc1[C@@](N)(c1ccc(Cl)cc1)c1ccc2c(c1)c(-c1cccc(Cl)c1)cc(=O)n2C [tipifarnib]
Procedure, shortened: as §1

mubritinib = compound: FC(F)(F)c1ccc(/C=C/c2nc(COc3ccc(CCCCn4ccnn4)cc3)co2)cc1 [mubritinib]
Procedure, shortened: as §1

Row | Target | log2 fold change [1] | log2 fold change (crizotinib) | log2 fold change [2] | log2 fold change [3] | log2 fold change (duvelisib) | log2 fold change (gandotinib) | log2 fold change [4] | log2 fold change (doramapimod) | log2 fold change (ispinesib) | log2 fold change (bafetinib) | log2 fold change [5] | log2 fold change (nilotinib) | log2 fold change [6] | log2 fold change (dasatinib) | log2 fold change [7] | log2 fold change [8] | log2 fold change [9] | log2 fold change (tozasertib) | log2 fold change (tipifarnib) | log2 fold change (mubritinib)
1 | TFCP2 (UniProt Q12800) | inactive: -0.087 | inactive: -0.118 | inactive: -0.11 | inactive: 0.178 | inactive: -0.126 | inactive: 0.039 | inactive: 0.082 | inactive: 0.17 | inactive: 0.053 | inactive: 0.04 | inactive: -0.092 | inactive: 0.047 | inactive: -0.03 | inactive: -0.004 | inactive: -0.03 | inactive: -0.28 | inactive: 0.026 |  |  | 
2 | TBL3 (UniProt Q12788) | inactive: 0 | inactive: -0.053 | inactive: -0.038 | inactive: 0.134 | inactive: -0.045 | inactive: 0.018 | inactive: -0.006 | inactive: 0.108 | inactive: -0.052 | inactive: 0.024 | inactive: -0.017 | inactive: 0.004 | inactive: -0.009 | inactive: 0.022 | inactive: 0.074 | inactive: -0.038 | inactive: -0.055 | inactive: 0.004 | inactive: 0.101 | inactive: -0.065
3 | TESC (UniProt Q96BS2) | inactive: -0.004 | inactive: 0.068 | inactive: 0.153 | inactive: 0.029 | inactive: 0.03 | inactive: -0.076 | inactive: 0.091 | inactive: -0.074 | inactive: 0.056 | inactive: -0.074 | inactive: -0.068 | inactive: 0 | inactive: 0.029 | inactive: -0.028 | inactive: -0.029 | inactive: -0.065 | inactive: -0.091 | inactive: 0.133 | inactive: -0.002 | inactive: 0.02
4 | TEX2 isoform 2 (UniProt Q8IWB9) | inactive: -0.001 | inactive: 0.136 | inactive: -0.016 | inactive: -0.084 | inactive: -0.014 | inactive: -0.059 | inactive: 0.076 | inactive: 0.034 | inactive: 0.084 | inactive: 0.094 | inactive: 0.045 |  |  | inactive: -0.049 |  | inactive: 0.026 | inactive: 0.065 | inactive: 0.067 | inactive: 0.028 | inactive: 0.149
5 | TK2 isoform 6 (UniProt O00142) | inactive: 0.135 | inactive: 0.029 | inactive: -0.018 | inactive: 0.189 | inactive: 0.132 | inactive: 0.006 | inactive: -0.204 | inactive: -0.104 | inactive: -0.025 | inactive: -0.174 | inactive: -0.172 | inactive: -0.004 | inactive: 0.114 | inactive: 0.034 | inactive: 0.007 | inactive: -0.065 | inactive: 0.006 | inactive: -0.087 |  | inactive: -0.002
6 | TIAL1 isoform 2 (UniProt Q01085) | inactive: 0.008 | inactive: -0.039 | inactive: 0.023 | inactive: -0.014 |  | inactive: -0.048 | inactive: 0.046 | inactive: -0.054 | inactive: 0.01 | inactive: -0.072 | inactive: -0.028 | inactive: -0.023 | inactive: 0.036 | inactive: -0.021 | inactive: 0.074 | inactive: 0.009 | inactive: -0.001 |  | inactive: 0.015 | inactive: 0.013
7 | TLE3 isoform 4 (UniProt Q04726) | inactive: -0.022 | inactive: 0.052 | inactive: -0.03 | inactive: -0.02 | inactive: -0.033 | inactive: -0.059 | inactive: -0.028 | inactive: 0.005 | inactive: 0.086 | inactive: -0.031 | inactive: -0.016 | inactive: 0.02 | inactive: 0.007 | inactive: 0.095 | inactive: -0.012 | inactive: 0.017 | inactive: 0.013 | inactive: -0.011 | inactive: -0.023 | inactive: 0.031
8 | TJAP1 (UniProt Q5JTD0) | inactive: -0.065 | inactive: 0.08 | inactive: 0.001 | inactive: -0.176 | inactive: 0.024 | inactive: 0.159 | inactive: 0.098 | inactive: -0.011 | inactive: -0.13 | inactive: -0.037 | inactive: -0.154 | inactive: -0.066 | inactive: -0.075 | inactive: -0.297 | inactive: -0.047 | inactive: -0.062 | inactive: 0.209 | inactive: -0.008 | inactive: 0.112 | inactive: -0.055
9 | THUMPD1 (UniProt Q9NXG2) | inactive: -0.019 | inactive: 0.036 | inactive: 0.054 | inactive: -0.051 | inactive: 0.035 | inactive: -0.02 | inactive: -0.016 | inactive: -0.084 | inactive: 0.077 | inactive: -0.038 | inactive: -0.024 | inactive: -0.003 | inactive: -0.022 | inactive: 0.014 | inactive: -0.021 | inactive: 0.046 | inactive: -0.013 | inactive: -0.014 | inactive: -0.005 | inactive: 0.021
10 | TGS1 (UniProt Q96RS0) | inactive: -0.031 | inactive: -0.099 | inactive: -0.07 | inactive: 0.301 | inactive: -0.048 |  | inactive: 0.053 | inactive: -0.023 | inactive: -0.173 | inactive: 0.027 |  | inactive: -0.099 | inactive: -0.177 | inactive: -0.064 | inactive: -0.138 | inactive: -0.247 | inactive: 0.029 | inactive: -0.02 | inactive: 0.029 | inactive: -0.21
11 | TBK1 (UniProt Q9UHD2) | inactive: -0.027 | active: 0.489 | inactive: -0.021 | inactive: 0.043 |  | inactive: 0.237 | inactive: 0.175 | inactive: 0.013 | inactive: -0.18 | inactive: -0.035 | inactive: -0.024 | inactive: -0.114 | active: 0.911 | inactive: -0.096 | inactive: 0.012 | inactive: 0.055 | inactive: -0.002 |  | inactive: -0.103 | inactive: -0.038
12 | THNSL1 (UniProt Q8IYQ7) | inactive: 0.018 | inactive: -0.022 | inactive: 0.075 | inactive: -0.054 | inactive: 0.055 | inactive: -0.002 | inactive: 0.035 | inactive: 0.003 | inactive: 0.106 | inactive: 0.062 | inactive: -0.038 | inactive: 0.113 | inactive: 0.017 | inactive: -0.081 | inactive: -0.02 | inactive: 0.052 | inactive: -0.015 | inactive: -0.026 | inactive: -0.021 | inactive: -0.048
13 | TKFC (UniProt Q3LXA3) | inactive: 0.018 | inactive: 0.013 | inactive: 0.036 | inactive: -0.012 | inactive: 0.032 | inactive: -0.05 | inactive: -0.04 | inactive: -0.003 | inactive: 0.022 | inactive: -0.023 | inactive: 0.018 | inactive: 0.003 | inactive: 0.007 | inactive: 0.002 | inactive: 0.001 | inactive: 0.029 | inactive: 0.034 | inactive: -0.015 | inactive: -0.05 | inactive: 0.036
14 | TCF3 (UniProt P15923) | inactive: -0.041 | inactive: -0.003 | inactive: 0.075 | inactive: 0.024 | inactive: -0.021 | inactive: -0.127 | inactive: -0.097 | inactive: 0.009 | inactive: 0.044 | inactive: -0.069 | inactive: 0.105 | inactive: -0.066 | inactive: -0.022 | inactive: 0.015 | inactive: -0.042 | inactive: 0.012 | inactive: -0.135 | inactive: 0.009 | inactive: 0.023 | inactive: 0.056
15 | TBC1D23 (UniProt Q9NUY8) | inactive: -0.026 | inactive: -0.019 | inactive: 0.022 | inactive: 0 |  | inactive: -0.205 | inactive: 0.028 | inactive: -0.027 | active: -0.48 | inactive: -0.141 | inactive: 0.041 | inactive: -0.113 | inactive: -0.032 | inactive: -0.155 | inactive: -0.056 | inactive: 0.025 | inactive: 0.006 |  | inactive: 0.003 | inactive: -0.011
16 | THADA (UniProt Q6YHU6) | inactive: 0.01 | inactive: -0.168 | inactive: 0.05 | inactive: 0.018 |  | active: -0.239 | inactive: 0.083 | inactive: 0.001 | inactive: -0.133 | inactive: 0 | inactive: 0.027 | inactive: -0.068 | inactive: 0.045 | inactive: -0.15 | inactive: -0.028 | inactive: 0.098 | inactive: 0.055 |  | inactive: -0.1 | inactive: 0.123
17 | TFDP1 (UniProt Q14186) | inactive: 0.045 | inactive: 0.075 | inactive: -0.066 |  |  | inactive: -0.035 |  | inactive: -0.069 | inactive: -0.078 | inactive: -0.039 | inactive: -0.045 | inactive: -0.017 | inactive: -0.14 |  | inactive: 0.177 |  | inactive: -0.072 | inactive: -0.049 | inactive: -0.024 | inactive: 0.037

Reprinted at random: 2 entries already listed
Row | Target | log2 fold change [1] | log2 fold change (crizotinib) | log2 fold change [2] | log2 fold change [3] | log2 fold change (duvelisib) | log2 fold change (gandotinib) | log2 fold change [4] | log2 fold change (doramapimod) | log2 fold change (ispinesib) | log2 fold change (bafetinib) | log2 fold change [5] | log2 fold change (nilotinib) | log2 fold change [6] | log2 fold change (dasatinib) | log2 fold change [7] | log2 fold change [8] | log2 fold change [9] | log2 fold change (tozasertib) | log2 fold change (tipifarnib) | log2 fold change (mubritinib)
3 | TESC (UniProt Q96BS2) | inactive: -0.004 | inactive: 0.068 | inactive: 0.153 | inactive: 0.029 | inactive: 0.03 | inactive: -0.076 | inactive: 0.091 | inactive: -0.074 | inactive: 0.056 | inactive: -0.074 | inactive: -0.068 | inactive: 0 | inactive: 0.029 | inactive: -0.028 | inactive: -0.029 | inactive: -0.065 | inactive: -0.091 | inactive: 0.133 | inactive: -0.002 | inactive: 0.02
10 | TGS1 (UniProt Q96RS0) | inactive: -0.031 | inactive: -0.099 | inactive: -0.07 | inactive: 0.301 | inactive: -0.048 |  | inactive: 0.053 | inactive: -0.023 | inactive: -0.173 | inactive: 0.027 |  | inactive: -0.099 | inactive: -0.177 | inactive: -0.064 | inactive: -0.138 | inactive: -0.247 | inactive: 0.029 | inactive: -0.02 | inactive: 0.029 | inactive: -0.21

Source: the supplement of paper PMC10849652
